The supplement of paper PMC6078165
Values are relative to the signal before dosing, not to a vehicle control; the signal also falls without drug.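 Labels refer to human fibroblasts, largely primary: uterine (C12385, HUF), lung (H6013), bone (Hs27A), adrenal (HADF), skin (WS1), plus mammary HMF and breast cancer-associated Hs343T. Cancer lines are basal-like or mesenchymal-like triple-negative breast cancer. The paper counts as hits responses shifting over 3x the replicate standard deviation. The tissue of the other fibroblasts is not given here.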

System: Hs578T
Assay: relative JC-1 red fluorescence (viability) vs pre-drug, coculture with fibroblast (fraction); higher = more viable cancer cells
Experimental: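 JC-1 labelled TNBC cells cocultured 1:1 (1,500 cells each) with CellTrace Violet stained primary or stromal fibroblasts in 384-well plates in FluoroBrite medium, treated with one of 42 anticancer drugs at 0.1, 1, 10 or 100 uM. JC-1 red fluorescence (mitochondrial integrity in cancer cells only) was read by plate reader every 8 h for 72 h. Values are normalised to each well's pre-drug value. The stock of one drug was tenfold lower, so its dose labels may be too high.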

O=C(O)C1(C(=O)O)CCC1.[NH2-].[NH2-].[Pt+2] [Carboplatin]
relative JC-1 red fluorescence
Settings | 8 h | 16 h | 24 h | 32 h | 40 h | 48 h | 56 h | 64 h | 72 h
10 µM | 0.919 | 0.8173 | 0.7471 | 0.7109 | 0.644 | 0.601 | 0.575 | 0.534 | 0.52
100 µM | 0.8479 | 0.759 | 0.72 | 0.699 | 0.649 | 0.618 | 0.621 | 0.596 | 0.597

relative JC-1 red fluorescence
Settings | 8 h | 16 h | 24 h | 32 h | 40 h | 48 h | 56 h | 64 h | 72 h
10 µM, coculture fibroblast: C12385 | 0.831 | 0.723 | 0.672 | 0.589 | 0.526 | 0.498 | 0.468 | 0.45 | 0.44
10 µM, coculture fibroblast: H6013 | 0.891 | 0.834 | 0.792 | 0.777 | 0.756 | 0.743 | 0.724 | 0.728 | 0.696
10 µM, coculture fibroblast: H6019 | 0.78959 | 0.694 | 0.677 | 0.585 | 0.546 | 0.515 | 0.482 | 0.457 | 0.433
10 µM, coculture fibroblast: H6076 | 0.885 | 0.833 | 0.824 | 0.83 | 0.817 | 0.836 | 0.832 | 0.857 | 0.859
10 µM, coculture fibroblast: H6231 | 0.918 | 0.815 | 0.737 | 0.6807 | 0.6083 | 0.578 | 0.521 | 0.488 | 0.463
10 µM, coculture fibroblast: HADF | 0.903 | 0.802 | 0.73 | 0.67 | 0.621 | 0.5883 | 0.5534 | 0.538 | 0.502
10 µM, coculture fibroblast: HCFa | 0.885 | 0.786 | 0.734 | 0.69 | 0.623 | 0.605 | 0.563 | 0.551 | 0.509
10 µM, coculture fibroblast: HCPF | 0.9372 | 0.8469 | 0.791 | 0.753 | 0.692 | 0.672 | 0.645 | 0.604 | 0.578
10 µM, coculture fibroblast: HHSteC | 0.88 | 0.773 | 0.71 | 0.655 | 0.592 | 0.565 | 0.533 | 0.511 | 0.474
10 µM, coculture fibroblast: HMF | 0.908 | 0.818 | 0.744 | 0.7144 | 0.654 | 0.624 | 0.576 | 0.555 | 0.531
10 µM, coculture fibroblast: HPFa | 0.897 | 0.8048 | 0.72949 | 0.6603 | 0.6093 | 0.571 | 0.528 | 0.495 | 0.451
10 µM, coculture fibroblast: HUF | 0.885 | 0.791 | 0.751 | 0.644 | 0.581 | 0.544 | 0.501 | 0.477 | 0.465
10 µM, coculture fibroblast: Hs27A | 0.8617 | 0.7985 | 0.731 | 0.677 | 0.615 | 0.594 | 0.557 | 0.547 | 0.495
10 µM, coculture fibroblast: Hs343T | 0.94 | 0.843 | 0.766 | 0.724 | 0.662 | 0.6214 | 0.5686 | 0.536 | 0.518
10 µM, coculture fibroblast: WS1 | 0.831 | 0.732 | 0.684 | 0.583 | 0.523 | 0.497 | 0.46 | 0.44 | 0.422
100 µM, coculture fibroblast: C12385 | 0.787 | 0.705 | 0.6682 | 0.5738 | 0.521 | 0.499 | 0.475 | 0.474 | 0.471
100 µM, coculture fibroblast: H6013 | 0.847 | 0.814 | 0.791 | 0.765 | 0.75 | 0.75 | 0.734 | 0.735 | 0.719
100 µM, coculture fibroblast: H6019 | 0.7571 | 0.687 | 0.697 | 0.615 | 0.599 | 0.596 | 0.584 | 0.589 | 0.583
100 µM, coculture fibroblast: H6076 | 0.866 | 0.803 | 0.779 | 0.777 | 0.75 | 0.752 | 0.748 | 0.743 | 0.748
100 µM, coculture fibroblast: H6231 | 0.862 | 0.778 | 0.6997 | 0.6539 | 0.585 | 0.561 | 0.523 | 0.504 | 0.504
100 µM, coculture fibroblast: HADF | 0.877 | 0.829 | 0.787 | 0.734 | 0.699 | 0.68 | 0.647 | 0.636 | 0.615
100 µM, coculture fibroblast: HCFa | 0.833 | 0.782 | 0.742 | 0.69 | 0.647 | 0.643 | 0.619 | 0.622 | 0.602
100 µM, coculture fibroblast: HCPF | 0.894 | 0.824 | 0.796 | 0.755 | 0.691 | 0.67 | 0.65 | 0.608 | 0.589
100 µM, coculture fibroblast: HHSteC | 0.84 | 0.798 | 0.7549 | 0.7033 | 0.666 | 0.64 | 0.623 | 0.611 | 0.592
100 µM, coculture fibroblast: HMF | 0.866 | 0.7817 | 0.715 | 0.671 | 0.607 | 0.572 | 0.545 | 0.515 | 0.49
100 µM, coculture fibroblast: HPFa | 0.8629 | 0.815 | 0.762 | 0.705 | 0.664 | 0.645 | 0.607 | 0.601 | 0.578
100 µM, coculture fibroblast: HUF | 0.804 | 0.699 | 0.675 | 0.565 | 0.506 | 0.47 | 0.452 | 0.441 | 0.442
100 µM, coculture fibroblast: Hs27A | 0.8403 | 0.796 | 0.752 | 0.7057 | 0.668 | 0.664 | 0.636 | 0.636 | 0.602
100 µM, coculture fibroblast: Hs343T | 0.8577 | 0.757 | 0.7015 | 0.678 | 0.61 | 0.581 | 0.551 | 0.525 | 0.514
100 µM, coculture fibroblast: WS1 | 0.75545 | 0.669 | 0.62953 | 0.52 | 0.461 | 0.448 | 0.423 | 0.417 | 0.418
